No constants are given. Whether binding was seen depends on the method and setting. Binding seen in cells or lysates may run through a third protein. Some entries that bind do so weakly or less than the wild type. For some of these results: Where a sequence is shown, tags or fusion partners need not be part of it.
Assays:
[1] = molecular target: T1, Cox9 (CIV) (S. cerevisiae (endogenous in YPH499 mitochondria)) (UniProt P07255); assay: cross-linking; XL-MS, qualitative data sets: purified mitochondria from yeast grown on glycerol or glucose medium, 5 mM BS3, 1 h, room temperature, 10 mM HEPES pH 7.5, 100 mM NaCl; trypsin, peptide SEC, LC-MS/MS, pLink 1, at least two CSMs and spectrum score of 4 or more
T1 sequence: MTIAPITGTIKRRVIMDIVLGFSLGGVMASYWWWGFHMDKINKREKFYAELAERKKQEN

Chains of the proteins cited; added tags and fusions are not shown.
UniProt P18239: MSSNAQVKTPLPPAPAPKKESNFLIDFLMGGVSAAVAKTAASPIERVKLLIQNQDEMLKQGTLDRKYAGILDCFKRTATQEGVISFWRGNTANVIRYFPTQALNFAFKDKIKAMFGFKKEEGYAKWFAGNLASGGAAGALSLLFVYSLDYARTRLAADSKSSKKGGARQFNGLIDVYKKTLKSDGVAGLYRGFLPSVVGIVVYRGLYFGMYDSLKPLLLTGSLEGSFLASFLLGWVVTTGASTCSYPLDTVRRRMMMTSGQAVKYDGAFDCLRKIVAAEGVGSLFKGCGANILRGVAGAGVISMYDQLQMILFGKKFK

[2] = molecular target: T2, Qcr7 (S. cerevisiae (endogenous in YPH499 mitochondria)) (UniProt P00128); assay: as above
T2 sequence: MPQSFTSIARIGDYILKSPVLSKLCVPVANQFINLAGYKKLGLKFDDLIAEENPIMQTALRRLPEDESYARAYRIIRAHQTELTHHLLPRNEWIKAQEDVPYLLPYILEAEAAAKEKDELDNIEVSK

[3] = molecular target: T3, Qcr2 (S. cerevisiae (endogenous in YPH499 mitochondria)) (UniProt P07257); assay: as above
T3 sequence: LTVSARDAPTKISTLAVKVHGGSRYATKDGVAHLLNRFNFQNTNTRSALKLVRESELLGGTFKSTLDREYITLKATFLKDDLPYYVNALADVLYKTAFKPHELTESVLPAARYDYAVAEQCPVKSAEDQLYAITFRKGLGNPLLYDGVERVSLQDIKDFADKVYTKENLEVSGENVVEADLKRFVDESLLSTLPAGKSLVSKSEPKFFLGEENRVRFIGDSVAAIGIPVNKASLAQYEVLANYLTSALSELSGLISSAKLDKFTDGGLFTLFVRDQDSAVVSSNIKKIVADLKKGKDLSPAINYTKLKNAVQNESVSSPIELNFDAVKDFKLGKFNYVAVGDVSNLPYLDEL

[4] = molecular target: Por1 (S. cerevisiae (endogenous in YPH499 mitochondria)) (UniProt P04840); assay: as above
[5] = molecular target: T4, Cox13 (S. cerevisiae (endogenous in YPH499 mitochondria)) (UniProt P32799); assay: as above
T4 sequence: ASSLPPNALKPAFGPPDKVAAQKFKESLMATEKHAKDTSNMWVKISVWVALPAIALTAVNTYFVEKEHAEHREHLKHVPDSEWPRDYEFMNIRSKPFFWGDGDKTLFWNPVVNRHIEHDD

[6] = molecular target: T5, Cox12, a subunit of CIV (S. cerevisiae (endogenous in YPH499 mitochondria)) (UniProt Q01519); assay: as above
T5 sequence: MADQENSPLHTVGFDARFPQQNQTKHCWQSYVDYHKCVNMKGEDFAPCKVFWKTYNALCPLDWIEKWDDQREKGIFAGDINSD

[7] = molecular target: T6, Cox6 (S. cerevisiae (endogenous in YPH499 mitochondria)) (UniProt P00427); assay: as above
T6 sequence: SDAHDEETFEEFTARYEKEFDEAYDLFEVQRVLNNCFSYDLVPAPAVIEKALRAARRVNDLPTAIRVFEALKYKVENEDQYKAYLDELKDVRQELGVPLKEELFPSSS

[8] = molecular target: Pet9, the major ADP/ATP carrier (S. cerevisiae (endogenous in YPH499 mitochondria)) (UniProt P18239); assay: as above
[9] = molecular target: T7, Por1 (S. cerevisiae (endogenous in YPH499 mitochondria)), P04840; assay: as above; conditions: remark: other sources report otherwise
T7 chain: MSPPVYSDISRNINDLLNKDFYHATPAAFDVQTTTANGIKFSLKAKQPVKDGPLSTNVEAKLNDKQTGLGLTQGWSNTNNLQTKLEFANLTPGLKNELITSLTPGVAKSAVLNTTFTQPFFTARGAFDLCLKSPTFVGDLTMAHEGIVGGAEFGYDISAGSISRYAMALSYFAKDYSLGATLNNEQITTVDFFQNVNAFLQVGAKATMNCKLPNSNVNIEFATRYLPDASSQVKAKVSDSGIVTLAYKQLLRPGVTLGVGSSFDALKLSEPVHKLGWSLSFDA

[10] = molecular target: T5, Cox12, a subunit of CIV (S. cerevisiae (endogenous in YPH499 mitochondria)); assay: cross-linking + co-IP; wild type and Min8-HA mitochondria treated with BS3, lysed in 0.5% Triton X-100 and 0.1% SDS (denaturing conditions), immunoisolated with Cox12 antisera or HA antibodies, SDS-PAGE and Western blotting

B1: Qcr6, a subunit of CIII (protein, UniProt P00127 1-147)
chain: MGMLELVGEYWEQLKITVVPVVAAAEDDDNEQHEEKAAEGEEKEEENGDEDEDEDEDEDDDDDDDEDEEEEEEVTDQLEDLREHFKNTEEGKALVHHYEECAERVKIQQQQPGYADLEHKEDCVEEFFHLQHYLDTATAPRLFDKLK
[1]
  binding: binds

B2: Ndi1, the internal NADH:ubiquinone oxidoreductase (protein, UniProt P32340 27-513)
chain: STGVENSGAGPTSFKTMKVIDPQHSDKPNVLILGSGWGAISFLKHIDTKKYNVSIISPRSYFLFTPLLPSAPVGTVDEKSIIEPIVNFALKKKGNVTYYEAEATSINPDRNTVTIKSLSAVSQLYQPENHLGLHQAEPAEIKYDYLISAVGAEPNTFGIPGVTDYGHFLKEIPNSLEIRRTFAANLEKANLLPKGDPERRRLLSIVVVGGGPTGVEAAGELQDYVHQDLRKFLPALAEEVQIHLVEALPIVLNMFEKKLSSYAQSHLENTSIKVHLRTAVAKVEEKQLLAKTKHEDGKITEETIPYGTLIWATGNKARPVITDLFKKIPEQNSSKRGLAVNDFLQVKGSNNIFAIGDNAFAGLPPTAQVAHQEAEYLAKNFDKMAQIPNFQKNLSSRKDKIDLLFEENNFKPFKYNDLGALAYLGSERAIATIRSGKRTFYTGGGLMTFYLWRILYLSMILSARSRLKVFFDWIKLAFFKRDFFKGL
[2]
  binding: binds
[3]
  binding: binds

B3: Alo1, the D-arabinono-1,4-lactone oxidase (protein, UniProt P54783 1-526)
chain: MSTIPFRKNYVFKNWAGIYSAKPERYFQPSSIDEVVELVKSARLAEKSLVTVGSGHSPSNMCVTDEWLVNLDRLDKVQKFVEYPELHYADVTVDAGMRLYQLNEFLGAKGYSIQNLGSISEQSVAGIISTGSHGSSPYHGLISSQYVNLTIVNGKGELKFLDAENDPEVFKAALLSVGKIGIIVSATIRVVPGFNIKSTQEVITFENLLKQWDTLWTSSEFIRVWWYPYTRKCVLWRGNKTTDAQNGPAKSWWGTKLGRFFYETLLWISTKIYAPLTPFVEKFVFNRQYGKLEKSSTGDVNVTDSISGFNMDCLFSQFVDEWGCPMDNGLEVLRSLDHSIAQAAINKEFYVHVPMEVRCSNTTLPSEPLDTSKRTNTSPGPVYGNVCRPFLDNTPSHCRFAPLENVTNSQLTLYINATIYRPFGCNTPIHKWFTLFENTMMVAGGKPHWAKNFLGSTTLAAGPVKKDTDYDDFEMRGMALKVEEWYGEDLKKFRKIRKEQDPDNVFLANKQWAIINGIIDPSELSD
[4]
  binding: binds

B4: Rcf2 (protein, UniProt P53721 1-224)
chain: MKILTQDEIEAHRSHTLKGGIEGALAGFAISAIIFKVLPRRYPKFKPSTLTWSIKTALWITPPTVLTAICAEEASNNFDATMYGSGSSSEDALDEHRRWKSLSTKDKFVEGLSNNKYKIITGAWAASLYGSWVIVNKDPIMTKAQKIVQARMYAQFITVGLLLASVGLSMYENKLHPNKQKVNEMRRWENALRVAEEEERLEKEGRRTGYVSNEERINSKIFKS
[5]
  binding: binds
[6]
  binding: binds

B5: Cox26 (protein, UniProt Q2V2P9 9-66)
chain: SSARAAPIKRYTGGRIGESWVITEGRRLIPEIFQWSAVLSVCLGWPGAVYFFSKARKA
[7]
  binding: binds

B6: Nde1, the external NADH:ubiquinone oxidoreductase (protein, UniProt P40215 42-560)
chain: EDKKVILQKVAPTTGVVAKQSFFKRTGKFTLKALLYSALAGTAYVSYSLYREANPSTQVPQSDTFPNGSKRKTLVILGSGWGSVSLLKNLDTTLYNVVVVSPRNYFLFTPLLPSTPVGTIELKSIVEPVRTIARRSHGEVHYYEAEAYDVDPENKTIKVKSSAKNNDYDLDLKYDYLVVGVGAQPNTFGTPGVYEYSSFLKEISDAQEIRLKIMSSIEKAASLSPKDPERARLLSFVVVGGGPTGVEFAAELRDYVDQDLRKWMPELSKEIKVTLVEALPNILNMFDKYLVDYAQDLFKEEKIDLRLKTMVKKVDATTITAKTGDGDIENIPYGVLVWATGNAPREVSKNLMTKLEEQDSRRGLLIDNKLQLLGAKGSIFAIGDCTFHPGLFPTAQVAHQEGEYLAQYFKKAYKIDQLNWKMTHAKDDSEVARLKNQIVKTQSQIEDFKYNHKGALAYIGSDKAIADLAVGEAKYRLAGSFTFLFWKSAYLAMCLSFRNRVLVAMDWAKVYFLGRDSSI
[8]
  binding: binds

B7: Tom40, the channel forming unit of the translocase of outer membrane (TOM) complex, P23644 1-387 (protein)
chain: MSAPTPLAEASQIPTIPALSPLTAKQSKGNFFSSNPISSFVVDTYKQLHSHRQSLELVNPGTVENLNKEVSRDVFLSQYFFTGLRADLNKAFSMNPAFQTSHTFSIGSQALPKYAFSALFANDNLFAQGNIDNDLSVSGRLNYGWDKKNISKVNLQISDGQPTMCQLEQDYQASDFSVNVKTLNPSFSEKGEFTGVAVASFLQSVTPQLALGLETLYSRTDGSAPGDAGVSYLTRYVSKKQDWIFSGQLQANGALIASLWRKVAQNVEAGIETTLQAGMVPITDPLMGTPIGIQPTVEGSTTIGAKYEYRQSVYRGTLDSNGKVACFLERKVLPTLSVLFCGEIDHFKNDTKIGCGLQFETAGNQELLMLQQGLDADGNPLQALPQL
[9]
  binding: binds

B8: Min8-HA (protein, UniProt A5Z2X5 1-72)
chain: MRPAQLLLNTAKKTSGGYKIPVELTPLFLAVGVALCSGTYFTYKKLRTDETLRLTGNPELSSLDEVLAKDKD
[10]
  binding: binds
